# From PMC12040169 (PLOS Biology, 2025)
# Some of the results follow.
# System: T1, CTL2-GFP (C. trachomatis L2/434/Bu, GFP-expressing)
# T1 construct: L2/434/Bu, GFP-expressing
# Set-up: species or system HeLa; Intracellular C. trachomatis growth in HeLa cells, bulk GFP fluorescence relative to DMSO
# Details: bulk GFP, single well; 28.5 h, 10 µM; inhibitor
row,SMILES,% of control remaining
1,CCOC(=O)c1cnc(SC)nc1N1CCOCC1 [CBK018971],114.684%
2,COc1ccc(/C(N)=N/OC(=O)C(C)Oc2ccc(Br)cc2)cc1OC (stereo not shown) [CBK266807],129.103%
3,O=C(NCCOc1ccc(-c2ccc(F)cc2)nn1)c1ccc(Br)o1 [CBK294429],150.576%
4,CC(C)COc1ccc(-c2nn(-c3ccccc3)cc2CSC(=N)N)cc1 [CBK264278C],34.2042%
5,O=C(c1cncnc1)N1CCN(C(=O)c2ccco2)CC1 [CBK144477],121.366%
6,CN(C)c1ncccc1CNC(=O)c1ccccn1 [CBK297774],162.114%
7,CN(CC1CCCOC1)C(=O)c1ncsc1Nc1ccccc1 (stereo not shown) [CBK304250],136.945%
8,Cc1ccc(C)c(-c2csc3c(=O)[nH]cnc23)c1 [CBK288556],119.224%
9,O=c1/c(=C/c2ccncc2)sc2n1CN(c1cccc(F)c1)CN=2 [CBK264340],119.026%
10,COc1ccc(CNC(=O)N(CCc2ccccc2)CC(C)(C)CN)cc1 [CBK000463C],82.2467%
11,CC(C)Nc1cncc(OCc2cccnc2)n1 [CBK115879],136.12%
12,O=C1CC(/C=C/c2ccccc2)Cc2[nH]c(=O)c(C(=O)O)cc21 (stereo not shown) [CBK286933],132.429%
13,Cc1nn(C)c(Cl)c1S(=O)(=O)Nc1cccnc1N1CCOCC1 [CBK062286],111.642%
14,COc1ccc(C(=O)CSc2nnc(C(O)c3ccccc3)n2-c2ccccc2)cc1 (stereo not shown) [CBK265104],115.015%
15,COc1ccc([C@H]2CN(C(=O)c3ccccc3)[C@@H]3CCN(Cc4ccccc4)C[C@H]23)cc1 [CBK285592],93.518%
16,O=C(CSc1nnc(-c2ccc(Cl)cc2Cl)o1)c1cc2ccccc2oc1=O [CBK268698],130.424%
17,Cc1cc(Cl)ccc1OCC(O)CN1CCN(Cc2ccc3c(c2)OCO3)CC1 (stereo not shown) [CBK074383],102.557%
18,O=S(=O)(Nc1nnc(C(F)(F)F)s1)c1ccc(-c2ccccn2)s1 [CBK062016],100.42%
19,Cc1ccc(S(=O)(=O)N(C)CC(=O)N(C)Cc2ccccc2)cc1 [CBK264201],133.237%
20,Cn1c2c(c3ccccc31)CCOC21CCNCC1 [CBK081142],112.607%

# An excerpt from above in order of molar mass, largest number first.
row,SMILES,% of control remaining
16,O=C(CSc1nnc(-c2ccc(Cl)cc2Cl)o1)c1cc2ccccc2oc1=O [CBK268698],130.424%
15,COc1ccc([C@H]2CN(C(=O)c3ccccc3)[C@@H]3CCN(Cc4ccccc4)C[C@H]23)cc1 [CBK285592],93.518%
2,COc1ccc(/C(N)=N/OC(=O)C(C)Oc2ccc(Br)cc2)cc1OC (stereo not shown) [CBK266807],129.103%
3,O=C(NCCOc1ccc(-c2ccc(F)cc2)nn1)c1ccc(Br)o1 [CBK294429],150.576%
10,COc1ccc(CNC(=O)N(CCc2ccccc2)CC(C)(C)CN)cc1 [CBK000463C],82.2467%
12,O=C1CC(/C=C/c2ccccc2)Cc2[nH]c(=O)c(C(=O)O)cc21 (stereo not shown) [CBK286933],132.429%
5,O=C(c1cncnc1)N1CCN(C(=O)c2ccco2)CC1 [CBK144477],121.366%
1,CCOC(=O)c1cnc(SC)nc1N1CCOCC1 [CBK018971],114.684%
20,Cn1c2c(c3ccccc31)CCOC21CCNCC1 [CBK081142],112.607%
11,CC(C)Nc1cncc(OCc2cccnc2)n1 [CBK115879],136.12%

# Next part:

row,SMILES,% of control remaining
1,COc1cncc(-c2cc(Nc3cc(OC)c(OC)cc3C)ncn2)c1 [CBK090782],167.615%
2,O=C(COc1ccc2ccccc2c1)Nc1ccc(CN2CCOCC2)cc1 [CBK265754],169.225%
3,Cc1ccc2nc(-c3ccncc3)cc(C(=O)N3CCN(c4ncccn4)CC3)c2c1 [CBK267751],124.873%
4,CC1=C(C(=O)Nc2ccc(Cl)cc2Cl)SCCO1 [CBK057784],112.021%
5,OCC1COCCN(c2ncnc3c2CCC3)C1 (stereo not shown) [CBK304373],112.796%
6,COCC(=O)N1CCC(NC(=O)N(CCc2ccccc2)Cc2ccccc2)CC1 [CBK174877],114.067%
7,Fc1ccc(-c2ccc(N3CCN(c4ccncc4)CC3)nc2)cc1Cl [CBK036821],145.049%
8,O=C(CSc1ccccc1)Nc1cnc(-c2ccc(F)cc2)c(-c2ccco2)n1 [CBK037196],164.768%
9,COc1ccc(OCCN2C(=O)CNC2=S)cc1 [CBK007177],136.899%
10,CCn1c(=O)n(CC(=O)N2CCCCCC2)c2cccnc21 [CBK283942],115.773%
11,Nc1nc(CC(=O)N2CCCCC2)cs1 [CBK049866],118.475%
12,Cc1n[nH]c(C)c1Sc1ccccc1/N=C/c1ccccc1O [CBK262068],122.133%
13,CC(C)(N)CC(=O)N1CCN(c2ncccn2)CC1 [CBK144532],106.567%
14,CC(=O)Nc1cccc(-n2ncc(-c3cccnc3)n2)c1 [CBK112811],118.249%
15,CCOC(=O)N1CCC(NC(=O)c2ccc3nc4ccccc4c(=O)n3c2)CC1 [CBK294447],170.635%
16,Cc1cccc(C2(Cn3cncc3-c3cnn(C)c3)CCOCC2)c1 [CBK281765],161.67%
17,CCc1cccc2c1Sc1ccccc1CC2N1CCN(C)CC1 (stereo not shown) [CBK026248G],87.0576%
18,Cc1noc(NS(=O)(=O)c2ccc(NC(=O)c3cc(-c4ccccc4Cl)nc4ccccc34)cc2)c1C [CBK296108],145.793%
19,COc1cc(-c2nc3ccccn3c2/N=C/c2ccc(-c3ccc([N+](=O)[O-])cc3)o2)ccc1O [CBK262288],121.998%
20,CS(=O)(=O)c1ccc(-c2cccc(COC3CCN(C(=O)Cc4ccc(C#N)cc4)CC3)c2)cc1 [CBK149513],85.2434%
